# Data as given in PMC12697862.
# Protein sequences, listed by entry. Tags and fused reporters are not part of them. Residues count along the entry.
# UniProt P38647, residues 47-679: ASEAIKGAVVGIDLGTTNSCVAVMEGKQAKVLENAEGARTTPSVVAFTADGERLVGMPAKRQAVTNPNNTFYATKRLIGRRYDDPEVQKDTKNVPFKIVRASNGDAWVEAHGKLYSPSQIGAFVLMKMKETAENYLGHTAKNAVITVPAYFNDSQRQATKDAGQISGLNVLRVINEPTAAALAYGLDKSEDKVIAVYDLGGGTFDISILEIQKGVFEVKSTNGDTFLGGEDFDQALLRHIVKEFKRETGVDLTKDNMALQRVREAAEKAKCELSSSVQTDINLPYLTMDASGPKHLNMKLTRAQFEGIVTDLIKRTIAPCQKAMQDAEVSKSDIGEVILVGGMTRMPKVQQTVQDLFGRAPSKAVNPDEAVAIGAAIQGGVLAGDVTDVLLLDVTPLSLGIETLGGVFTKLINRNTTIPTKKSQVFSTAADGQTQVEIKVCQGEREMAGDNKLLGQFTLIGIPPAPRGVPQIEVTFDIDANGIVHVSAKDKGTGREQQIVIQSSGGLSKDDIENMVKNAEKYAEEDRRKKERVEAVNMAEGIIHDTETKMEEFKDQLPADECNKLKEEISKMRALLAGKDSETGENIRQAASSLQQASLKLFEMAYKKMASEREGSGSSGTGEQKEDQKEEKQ
# No constants are given. Whether binding was seen depends on the method and setting. Binding seen in cells or lysates may run through a third protein. These calls come from enrichment with a bait or labelling near it, and not all partners need be listed. Tags and fused reporters may be left off the sequences shown.
# Biological target: T1, His tagged murine GCN5L1 (mouse) (UniProt O55102)
# T1 sequence: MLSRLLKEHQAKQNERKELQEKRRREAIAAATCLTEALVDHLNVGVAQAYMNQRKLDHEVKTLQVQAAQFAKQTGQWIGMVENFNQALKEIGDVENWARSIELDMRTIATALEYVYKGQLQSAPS
# Experiment: affinity purification with mass spectrometry; His tagged murine GCN5L1 purified from E. coli incubated with liver mitochondrial extract, analysis with MS; only the target purified
substance,measurement,value
"GRP75, endogenous in mouse liver (from UniProt P38647 47-679)",binding,binds
